± gives the standard deviation of the averaged measurements. The entries are a selection whose mix differs from that of the whole data set.
Compound: Nc1ncnc2c1ncn2[C@@H]1O[C@H](COP(=O)(O)OP(=O)(O)NP(=O)(O)O)[C@@H](O)[C@H]1O [adenylyl imidodiphosphate]
Experiment: NP40-soluble protein abundance relative to vehicle (solubility fold change) (ratio); higher = more soluble protein in presence of AMP-PNP
How it was run: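 Each value is a fold change relative to the detergent-processed vehicle, calculated per replicate from vsn-normalised intensities. Jurkat crude lysate received eight concentrations (0.1 to 10 mM) for 10 min at room temperature and 3 min at 37 °C, then was solubilised in 0.8% NP40 with benzonase (60 min, 4 °C). The ultracentrifuged supernatant was TMT-labelled and run by LC-MS/MS in three independent experiments.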

The chains behind the UniProt entries cited, without tags or fusion partners. Where a name states a change or a piece, a line headed by the entry shows the natural chain unless it says otherwise.
UniProt Q86UU1: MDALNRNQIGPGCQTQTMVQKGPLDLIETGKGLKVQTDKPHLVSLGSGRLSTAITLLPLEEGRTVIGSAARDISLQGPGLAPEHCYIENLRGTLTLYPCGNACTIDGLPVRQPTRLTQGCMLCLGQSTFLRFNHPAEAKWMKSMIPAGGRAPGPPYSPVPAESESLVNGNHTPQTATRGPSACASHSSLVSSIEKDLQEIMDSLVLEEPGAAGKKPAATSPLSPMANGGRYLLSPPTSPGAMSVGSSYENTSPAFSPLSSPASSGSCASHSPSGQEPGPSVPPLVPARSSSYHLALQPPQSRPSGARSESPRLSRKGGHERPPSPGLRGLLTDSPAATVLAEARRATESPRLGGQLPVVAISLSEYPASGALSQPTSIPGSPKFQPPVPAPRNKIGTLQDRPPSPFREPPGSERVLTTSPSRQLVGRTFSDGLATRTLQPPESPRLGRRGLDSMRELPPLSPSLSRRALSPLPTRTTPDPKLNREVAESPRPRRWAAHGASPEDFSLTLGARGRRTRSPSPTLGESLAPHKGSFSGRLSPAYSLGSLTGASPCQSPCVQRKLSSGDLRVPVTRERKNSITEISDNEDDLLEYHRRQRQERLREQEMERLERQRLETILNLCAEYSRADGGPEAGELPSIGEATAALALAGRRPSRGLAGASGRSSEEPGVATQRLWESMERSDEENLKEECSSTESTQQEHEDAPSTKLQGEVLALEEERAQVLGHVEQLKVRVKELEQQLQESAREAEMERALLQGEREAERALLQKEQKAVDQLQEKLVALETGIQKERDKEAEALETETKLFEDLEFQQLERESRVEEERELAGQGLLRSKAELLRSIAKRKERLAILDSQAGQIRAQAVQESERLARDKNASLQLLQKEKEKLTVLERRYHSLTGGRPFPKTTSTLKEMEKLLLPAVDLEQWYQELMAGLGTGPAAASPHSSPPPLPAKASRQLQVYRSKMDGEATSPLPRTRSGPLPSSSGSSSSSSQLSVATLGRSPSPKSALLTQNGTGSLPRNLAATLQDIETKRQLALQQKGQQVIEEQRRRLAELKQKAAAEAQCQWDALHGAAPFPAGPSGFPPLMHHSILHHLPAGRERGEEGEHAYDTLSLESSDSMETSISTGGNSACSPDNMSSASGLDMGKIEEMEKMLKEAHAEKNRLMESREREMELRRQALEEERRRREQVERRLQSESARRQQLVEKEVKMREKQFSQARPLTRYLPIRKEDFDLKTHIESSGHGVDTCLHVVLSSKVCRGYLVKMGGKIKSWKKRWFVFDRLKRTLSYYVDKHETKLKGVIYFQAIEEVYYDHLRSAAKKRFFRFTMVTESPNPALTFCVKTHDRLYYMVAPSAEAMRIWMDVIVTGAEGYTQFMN
UniProt Q8IZH2: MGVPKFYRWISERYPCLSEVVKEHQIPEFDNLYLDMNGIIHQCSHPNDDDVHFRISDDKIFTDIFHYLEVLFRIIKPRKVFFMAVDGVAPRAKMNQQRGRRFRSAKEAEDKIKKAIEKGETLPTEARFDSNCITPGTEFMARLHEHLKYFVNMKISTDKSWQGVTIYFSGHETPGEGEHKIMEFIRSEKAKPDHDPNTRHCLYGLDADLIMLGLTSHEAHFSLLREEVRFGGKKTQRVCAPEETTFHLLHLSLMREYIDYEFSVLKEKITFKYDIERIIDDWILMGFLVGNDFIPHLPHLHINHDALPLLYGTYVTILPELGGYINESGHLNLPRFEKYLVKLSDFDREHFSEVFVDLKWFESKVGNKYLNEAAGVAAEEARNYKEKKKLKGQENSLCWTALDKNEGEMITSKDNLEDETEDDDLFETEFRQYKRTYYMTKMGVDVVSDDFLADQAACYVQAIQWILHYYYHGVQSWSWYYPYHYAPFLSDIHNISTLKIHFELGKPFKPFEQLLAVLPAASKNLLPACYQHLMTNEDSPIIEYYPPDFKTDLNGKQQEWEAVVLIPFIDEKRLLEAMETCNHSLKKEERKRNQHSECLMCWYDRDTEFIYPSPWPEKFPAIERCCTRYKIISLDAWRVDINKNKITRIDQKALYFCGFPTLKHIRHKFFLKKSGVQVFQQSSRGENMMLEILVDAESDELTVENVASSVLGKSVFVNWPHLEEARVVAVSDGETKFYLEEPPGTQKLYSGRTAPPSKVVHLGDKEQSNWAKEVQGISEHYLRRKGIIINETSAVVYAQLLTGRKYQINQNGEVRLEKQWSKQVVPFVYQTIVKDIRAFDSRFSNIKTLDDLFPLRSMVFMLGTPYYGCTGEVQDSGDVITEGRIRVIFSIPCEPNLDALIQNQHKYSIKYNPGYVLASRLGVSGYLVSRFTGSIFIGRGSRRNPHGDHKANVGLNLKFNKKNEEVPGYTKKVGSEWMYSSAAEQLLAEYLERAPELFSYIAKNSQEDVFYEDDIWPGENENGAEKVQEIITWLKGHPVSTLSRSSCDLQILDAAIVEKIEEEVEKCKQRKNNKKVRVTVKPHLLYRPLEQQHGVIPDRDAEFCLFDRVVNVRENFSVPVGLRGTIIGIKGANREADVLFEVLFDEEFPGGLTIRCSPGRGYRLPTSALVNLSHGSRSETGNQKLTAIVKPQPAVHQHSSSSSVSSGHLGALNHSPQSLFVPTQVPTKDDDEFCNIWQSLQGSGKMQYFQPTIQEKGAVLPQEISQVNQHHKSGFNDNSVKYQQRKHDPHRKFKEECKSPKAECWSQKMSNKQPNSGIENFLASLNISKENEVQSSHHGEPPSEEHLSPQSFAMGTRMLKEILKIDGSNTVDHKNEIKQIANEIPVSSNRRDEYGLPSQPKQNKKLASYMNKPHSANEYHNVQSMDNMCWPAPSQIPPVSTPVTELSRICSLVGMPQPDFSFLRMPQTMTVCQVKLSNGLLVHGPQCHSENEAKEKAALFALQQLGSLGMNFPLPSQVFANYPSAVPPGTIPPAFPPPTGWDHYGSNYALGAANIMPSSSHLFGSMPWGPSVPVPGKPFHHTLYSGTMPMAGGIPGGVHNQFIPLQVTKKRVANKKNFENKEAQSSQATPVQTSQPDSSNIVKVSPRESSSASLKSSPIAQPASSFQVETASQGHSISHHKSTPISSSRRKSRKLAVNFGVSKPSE
UniProt Q86X95: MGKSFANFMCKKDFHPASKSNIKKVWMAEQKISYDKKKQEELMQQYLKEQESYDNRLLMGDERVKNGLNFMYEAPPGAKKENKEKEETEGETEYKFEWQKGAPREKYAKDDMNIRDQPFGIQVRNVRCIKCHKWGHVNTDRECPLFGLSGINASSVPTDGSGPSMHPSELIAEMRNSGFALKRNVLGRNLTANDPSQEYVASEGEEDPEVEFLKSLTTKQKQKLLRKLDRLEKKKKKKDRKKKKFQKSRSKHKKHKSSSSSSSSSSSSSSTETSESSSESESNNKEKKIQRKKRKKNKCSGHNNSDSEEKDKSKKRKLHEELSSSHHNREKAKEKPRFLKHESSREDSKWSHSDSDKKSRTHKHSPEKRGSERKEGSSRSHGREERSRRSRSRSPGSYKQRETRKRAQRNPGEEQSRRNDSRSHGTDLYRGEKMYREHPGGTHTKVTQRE
UniProt Q86TU7: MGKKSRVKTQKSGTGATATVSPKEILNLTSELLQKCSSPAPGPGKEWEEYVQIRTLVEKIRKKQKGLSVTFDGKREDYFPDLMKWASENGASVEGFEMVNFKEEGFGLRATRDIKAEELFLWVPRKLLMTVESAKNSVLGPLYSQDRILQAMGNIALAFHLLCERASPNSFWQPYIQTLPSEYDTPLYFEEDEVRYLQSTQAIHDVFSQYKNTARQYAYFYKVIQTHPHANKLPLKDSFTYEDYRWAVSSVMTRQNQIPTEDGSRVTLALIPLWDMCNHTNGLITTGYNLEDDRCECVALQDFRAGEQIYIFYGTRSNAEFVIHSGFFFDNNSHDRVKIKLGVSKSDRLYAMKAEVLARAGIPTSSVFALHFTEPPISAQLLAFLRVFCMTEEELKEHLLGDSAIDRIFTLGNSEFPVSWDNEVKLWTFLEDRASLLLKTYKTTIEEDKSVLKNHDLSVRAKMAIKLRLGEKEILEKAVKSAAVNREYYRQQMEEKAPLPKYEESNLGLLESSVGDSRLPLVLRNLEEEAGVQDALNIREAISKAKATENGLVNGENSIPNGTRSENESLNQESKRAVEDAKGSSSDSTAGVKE
UniProt Q8N4N3: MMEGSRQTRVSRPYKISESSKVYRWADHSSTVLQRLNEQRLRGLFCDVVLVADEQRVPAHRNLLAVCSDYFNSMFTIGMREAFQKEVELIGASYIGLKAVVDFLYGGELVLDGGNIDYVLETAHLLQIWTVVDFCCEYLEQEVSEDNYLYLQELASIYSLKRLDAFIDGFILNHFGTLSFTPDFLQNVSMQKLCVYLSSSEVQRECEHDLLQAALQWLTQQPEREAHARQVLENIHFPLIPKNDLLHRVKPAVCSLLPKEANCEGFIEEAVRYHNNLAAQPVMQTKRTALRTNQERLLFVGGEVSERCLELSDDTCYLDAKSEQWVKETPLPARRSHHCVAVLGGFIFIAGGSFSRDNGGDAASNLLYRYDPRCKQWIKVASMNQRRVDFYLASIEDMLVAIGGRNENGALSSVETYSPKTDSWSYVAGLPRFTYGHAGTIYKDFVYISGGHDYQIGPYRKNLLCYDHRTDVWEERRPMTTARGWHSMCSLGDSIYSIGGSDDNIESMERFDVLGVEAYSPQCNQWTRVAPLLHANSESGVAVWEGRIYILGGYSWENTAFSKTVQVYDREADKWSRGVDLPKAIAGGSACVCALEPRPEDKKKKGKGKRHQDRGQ
UniProt Q8N2Z9: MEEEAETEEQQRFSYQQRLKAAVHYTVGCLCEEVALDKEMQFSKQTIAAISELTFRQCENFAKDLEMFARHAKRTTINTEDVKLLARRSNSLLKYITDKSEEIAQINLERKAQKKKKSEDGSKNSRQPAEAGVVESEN
UniProt Q8IYL3: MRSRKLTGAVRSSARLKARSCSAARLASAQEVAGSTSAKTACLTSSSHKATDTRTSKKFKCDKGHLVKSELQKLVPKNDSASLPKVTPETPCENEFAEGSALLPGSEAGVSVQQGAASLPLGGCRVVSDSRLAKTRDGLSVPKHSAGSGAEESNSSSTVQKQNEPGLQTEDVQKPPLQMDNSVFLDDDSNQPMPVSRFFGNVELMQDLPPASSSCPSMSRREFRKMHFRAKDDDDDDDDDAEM
UniProt Q86U42: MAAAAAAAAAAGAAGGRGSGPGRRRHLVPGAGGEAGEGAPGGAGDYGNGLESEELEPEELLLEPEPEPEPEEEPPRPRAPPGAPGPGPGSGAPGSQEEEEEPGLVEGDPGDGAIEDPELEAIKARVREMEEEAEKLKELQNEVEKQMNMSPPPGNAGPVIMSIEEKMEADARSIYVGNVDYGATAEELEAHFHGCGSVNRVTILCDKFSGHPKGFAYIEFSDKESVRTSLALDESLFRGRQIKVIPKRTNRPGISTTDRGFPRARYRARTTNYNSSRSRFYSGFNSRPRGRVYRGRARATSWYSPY
UniProt Q8N4P3, whole entry: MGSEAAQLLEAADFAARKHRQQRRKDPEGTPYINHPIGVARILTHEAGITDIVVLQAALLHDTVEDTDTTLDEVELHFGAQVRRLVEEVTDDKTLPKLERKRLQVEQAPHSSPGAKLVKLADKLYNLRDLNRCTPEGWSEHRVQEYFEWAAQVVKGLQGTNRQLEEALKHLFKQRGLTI
UniProt Q8IWR0: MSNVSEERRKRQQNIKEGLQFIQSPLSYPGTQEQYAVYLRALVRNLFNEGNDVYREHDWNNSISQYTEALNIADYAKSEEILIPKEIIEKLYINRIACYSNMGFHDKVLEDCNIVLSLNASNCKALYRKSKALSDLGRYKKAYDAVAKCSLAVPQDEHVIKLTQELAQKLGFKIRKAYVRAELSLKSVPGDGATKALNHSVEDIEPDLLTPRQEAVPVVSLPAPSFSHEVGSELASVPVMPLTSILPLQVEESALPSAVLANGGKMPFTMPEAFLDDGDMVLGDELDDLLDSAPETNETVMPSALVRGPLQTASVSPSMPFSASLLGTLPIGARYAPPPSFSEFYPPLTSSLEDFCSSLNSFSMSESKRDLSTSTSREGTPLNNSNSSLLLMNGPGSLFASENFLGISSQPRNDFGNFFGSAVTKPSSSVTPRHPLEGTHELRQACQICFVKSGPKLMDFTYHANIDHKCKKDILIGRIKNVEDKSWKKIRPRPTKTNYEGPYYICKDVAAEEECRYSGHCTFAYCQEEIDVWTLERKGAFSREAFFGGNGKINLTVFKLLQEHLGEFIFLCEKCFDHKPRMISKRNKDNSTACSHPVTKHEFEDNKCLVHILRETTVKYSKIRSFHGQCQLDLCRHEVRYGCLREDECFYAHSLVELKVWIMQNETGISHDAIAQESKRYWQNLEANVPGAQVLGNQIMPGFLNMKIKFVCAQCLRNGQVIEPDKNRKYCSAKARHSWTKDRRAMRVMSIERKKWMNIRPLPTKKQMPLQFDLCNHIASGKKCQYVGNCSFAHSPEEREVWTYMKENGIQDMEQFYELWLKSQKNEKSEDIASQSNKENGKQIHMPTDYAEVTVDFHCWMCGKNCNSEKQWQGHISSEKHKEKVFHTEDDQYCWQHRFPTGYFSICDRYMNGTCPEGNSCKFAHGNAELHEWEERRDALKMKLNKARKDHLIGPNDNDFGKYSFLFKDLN

Target	NP40-soluble protein abundance (concentration: 1mM)	NP40-soluble protein abundance (concentration: 2mM)	NP40-soluble protein abundance (concentration: 4mM)	NP40-soluble protein abundance (concentration: 6mM)	NP40-soluble protein abundance (concentration: 8mM)	NP40-soluble protein abundance (concentration: 10mM)
UniProt Q8N108 and related entries	1.02 ± 0.021	1.09 ± 0.073	1.037 ± 0.005	1.02 ± 0.011	0.997 ± 0.014	1.02 ± 0.026
UniProt Q86X10 and related entries	0.979 ± 0.056	0.939 ± 0.051	1 ± 0.024	0.938 ± 0.016	0.945 ± 0.015	0.934 ± 0.049
UniProt Q86UU1 and related entries	1.01 ± 0.025	0.992 ± 0.042	0.971 ± 0.018	0.998 ± 0.034	0.996 ± 0.049	0.973 ± 0.035
UniProt Q8IZH2 and related entries	1.03 ± 0.013	0.981 ± 0.064	1.03 ± 0.022	0.993 ± 0.06	1 ± 0.037	1 ± 0.072
RBM12B (UniProt Q8IXT5)	1.01 ± 0.035	1.02 ± 0.022	1.046 ± 0.0077	1.11 ± 0.038	1.12 ± 0.048	1.11 ± 0.056
UniProt Q86X95	0.975 ± 0.021	1.04 ± 0.076	0.998 ± 0.082	0.925 ± 0.032	0.936 ± 0.04	0.937 ± 0.048
EXOC8 (UniProt Q8IYI6)	1.07 ± 0.047	0.989 ± 0.026	0.964 ± 0.03	0.976 ± 0.032	0.947 ± 0.026	0.948 ± 0.035
DIS3L2 (UniProt Q8IYB7)	0.982 ± 0.03	0.963 ± 0.051	0.978 ± 0.032	0.9473 ± 0.0089	0.937 ± 0.016	0.927 ± 0.032
UniProt Q86UK7 and related entries	1.03 ± 0.043	1.03 ± 0.022	1.07 ± 0.031	1.08 ± 0.038	1.1 ± 0.048	1.11 ± 0.07
SETD3 (UniProt Q86TU7)	0.989 ± 0.057	0.974 ± 0.016	1.03 ± 0.03	1.05 ± 0.038	1.08 ± 0.034	1.05 ± 0.044
PELP1 (UniProt Q8IZL8)	1.01 ± 0.028	1.024 ± 0.0074	1.01 ± 0.026	1 ± 0.03	1.032 ± 0.0039	1.03 ± 0.015
UniProt Q86XL3 and related entries	0.997 ± 0.03	1.01 ± 0.04	1.02 ± 0.047	1.01 ± 0.029	0.982 ± 0.049	1.02 ± 0.038
UniProt Q8N4N3 and related entries	1 ± 0.013	0.996 ± 0.019	0.981 ± 0.027	0.96 ± 0.019	0.981 ± 0.027	0.959 ± 0.017
UniProt Q8N4C8 and related entries	1.05 ± 0.033	1.1 ± 0.066	1.06 ± 0.0092	1.05 ± 0.058	1.02 ± 0.024	1.08 ± 0.05
UniProt Q8N2Z9	0.955 ± 0.054	0.966 ± 0.05	0.943 ± 0.034	0.954 ± 0.019	0.934 ± 0.061	0.936 ± 0.055
UniProt Q8IU85 and related entries	0.994 ± 0.025	0.976 ± 0.051	0.977 ± 0.069	0.921 ± 0.027	0.948 ± 0.016	0.933 ± 0.042
UniProt Q7Z7K6 and related entries	1.08 ± 0.068	1.153 ± 0.0086	1.3 ± 0.087	1.51 ± 0.12	1.72 ± 0.052	2.1 ± 0.13
DCUN1D3 (UniProt Q8IWE4)	1 ± 0.02	0.978 ± 0.02	0.967 ± 0.031	0.97 ± 0.026	0.9813 ± 0.0054	0.966 ± 0.03
C1orf174 (UniProt Q8IYL3)	1.008 ± 0.0078	1.1 ± 0.1	1.05 ± 0.049	1.1 ± 0.049	1.11 ± 0.041	1.11 ± 0.08
UniProt Q8N0X7	0.966 ± 0.051	1.02 ± 0.076	0.951 ± 0.029	0.983 ± 0.018	0.935 ± 0.028	1.01 ± 0.028

Target	NP40-soluble protein abundance (concentration: 1mM)	NP40-soluble protein abundance (concentration: 2mM)	NP40-soluble protein abundance (concentration: 4mM)	NP40-soluble protein abundance (concentration: 6mM)	NP40-soluble protein abundance (concentration: 8mM)	NP40-soluble protein abundance (concentration: 10mM)
UniProt Q8IZE3-2|X6RHX1	1 ± 0.051	1.01 ± 0.056	0.999 ± 0.064	0.973 ± 0.049	0.985 ± 0.046	0.989 ± 0.066
UniProt Q86TN4 and related entries	1.024 ± 0.0098	1.03 ± 0.022	1.11 ± 0.034	1.1 ± 0.052	1.16 ± 0.042	1.13 ± 0.019
UniProt Q8IX90	1.04 ± 0.0094	1.06 ± 0.066	1.04 ± 0.017	0.987 ± 0.018	0.978 ± 0.022	0.995 ± 0.028
UniProt Q8N7H5 and related entries	1.01 ± 0.021	1.04 ± 0.031	1.01 ± 0.012	1.01 ± 0.037	0.986 ± 0.025	1.02 ± 0.023
CAND1 (UniProt Q86VP6)	0.971 ± 0.024	0.947 ± 0.03	0.983 ± 0.035	1.01 ± 0.084	1.03 ± 0.044	0.992 ± 0.058
WDFY1 (UniProt Q8IWB7)	1.01 ± 0.052	0.959 ± 0.023	0.99 ± 0.054	0.988 ± 0.029	1.04 ± 0.037	0.992 ± 0.043
UniProt Q86X76 and related entries	1 ± 0.045	0.965 ± 0.032	1.03 ± 0.061	1.13 ± 0.12	1.15 ± 0.098	1.14 ± 0.06
SYTL1 (UniProt Q8IYJ3)	1.005 ± 0.0053	1.07 ± 0.066	1.04 ± 0.019	0.997 ± 0.011	0.9992 ± 0.0074	1.01 ± 0.018
UniProt Q8N5G2	1.02 ± 0.053	1.03 ± 0.081	1.01 ± 0.075	1.02 ± 0.046	1.03 ± 0.077	1.02 ± 0.14
UniProt Q86VN1 and related entries	0.983 ± 0.02	0.935 ± 0.05	0.991 ± 0.037	1.01 ± 0.022	1.01 ± 0.023	0.992 ± 0.032
MRPL41 (UniProt Q8IXM3)	0.973 ± 0.047	0.997 ± 0.033	0.932 ± 0.038	0.915 ± 0.11	0.892 ± 0.078	0.904 ± 0.079
UniProt Q8IW35 and related entries	0.984 ± 0.027	0.982 ± 0.059	0.982 ± 0.024	0.962 ± 0.015	0.952 ± 0.033	0.963 ± 0.01
UniProt Q86U42 and related entries	0.976 ± 0.041	1 ± 0.028	0.981 ± 0.023	1.08 ± 0.03	1.06 ± 0.034	1.08 ± 0.025
GALNT7 (UniProt Q86SF2)	0.995 ± 0.014	0.92 ± 0.11	0.985 ± 0.04	0.956 ± 0.024	0.969 ± 0.034	0.92 ± 0.026
UniProt Q86VR2	0.989 ± 0.0052	0.966 ± 0.024	0.977 ± 0.025	0.976 ± 0.015	0.9994 ± 0.002	0.952 ± 0.01
TXNDC5 (UniProt Q8NBS9)	0.997 ± 0.027	1.01 ± 0.039	0.976 ± 0.025	0.98 ± 0.022	0.965 ± 0.04	0.984 ± 0.049
UniProt Q8N4P3 and related entries	1 ± 0.046	1 ± 0.062	1.01 ± 0.041	0.986 ± 0.019	0.97 ± 0.038	0.955 ± 0.062
UniProt Q8N983-4|B1AL05 and related entries	0.926 ± 0.099	0.956 ± 0.1	0.915 ± 0.058	0.856 ± 0.13	0.855 ± 0.12	0.815 ± 0.14
DHX37 (UniProt Q8IY37)	1.06 ± 0.044	1.08 ± 0.056	1.12 ± 0.022	1.1 ± 0.05	1.15 ± 0.073	1.17 ± 0.079
ZC3H7A (UniProt Q8IWR0)	1.008 ± 0.0064	1.02 ± 0.036	1.11 ± 0.029	1.12 ± 0.025	1.12 ± 0.044	1.16 ± 0.049

A second format for some results above.
Target,NP40-soluble protein abundance (concentration: 1mM),NP40-soluble protein abundance (concentration: 2mM),NP40-soluble protein abundance (concentration: 4mM),NP40-soluble protein abundance (concentration: 6mM),NP40-soluble protein abundance (concentration: 8mM),NP40-soluble protein abundance (concentration: 10mM)
UniProt Q86VN1 and related entries,0.983 ± 0.02,0.935 ± 0.05,0.991 ± 0.037,1.01 ± 0.022,1.01 ± 0.023,0.992 ± 0.032
MRPL41 (UniProt Q8IXM3),0.973 ± 0.047,0.997 ± 0.033,0.932 ± 0.038,0.915 ± 0.11,0.892 ± 0.078,0.904 ± 0.079
UniProt Q8IW35 and related entries,0.984 ± 0.027,0.982 ± 0.059,0.982 ± 0.024,0.962 ± 0.015,0.952 ± 0.033,0.963 ± 0.01
UniProt Q86U42 and related entries,0.976 ± 0.041,1 ± 0.028,0.981 ± 0.023,1.08 ± 0.03,1.06 ± 0.034,1.08 ± 0.025
GALNT7 (UniProt Q86SF2),0.995 ± 0.014,0.92 ± 0.11,0.985 ± 0.04,0.956 ± 0.024,0.969 ± 0.034,0.92 ± 0.026
UniProt Q86VR2,0.989 ± 0.0052,0.966 ± 0.024,0.977 ± 0.025,0.976 ± 0.015,0.9994 ± 0.002,0.952 ± 0.01
TXNDC5 (UniProt Q8NBS9),0.997 ± 0.027,1.01 ± 0.039,0.976 ± 0.025,0.98 ± 0.022,0.965 ± 0.04,0.984 ± 0.049
UniProt Q8N4P3 and related entries,1 ± 0.046,1 ± 0.062,1.01 ± 0.041,0.986 ± 0.019,0.97 ± 0.038,0.955 ± 0.062
UniProt Q8N983-4|B1AL05 and related entries,0.926 ± 0.099,0.956 ± 0.1,0.915 ± 0.058,0.856 ± 0.13,0.855 ± 0.12,0.815 ± 0.14
DHX37 (UniProt Q8IY37),1.06 ± 0.044,1.08 ± 0.056,1.12 ± 0.022,1.1 ± 0.05,1.15 ± 0.073,1.17 ± 0.079
ZC3H7A (UniProt Q8IWR0),1.008 ± 0.0064,1.02 ± 0.036,1.11 ± 0.029,1.12 ± 0.025,1.12 ± 0.044,1.16 ± 0.049
